Values from PubChem BioAssay AID602196 (INSERM, 2012).

Test: 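Knock-downs that protect lung cancer cells from cisplatin or sensitise them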
System: human A549 lung cancer cells
Knock-down reagent: siRNA pair against human genes
Time to read-out: 48 h transfection before cisplatin; time from cisplatin to read-out not stated
Conditions: cisplatin at a dose killing half of control-siRNA cells; exact dose and duration not given
Measured: 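Shift in cisplatin death relative to control siRNA, from -50 (all cells die) to +50 (no cells die); siRNAs harmful on their own scored 0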
Direction: two-siRNA summed score (-2 to +2): higher = both siRNAs protect from cisplatin killing; -2 means both sensitise
Active means: 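Each siRNA scores 0 if harmful alone by LDH or WST-1, otherwise +1 if it reduces and -1 if it increases cisplatin killing; a gene is active when both siRNAs agree (sum +2 or -2)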
Meaning of the calls: active = both siRNAs shift cisplatin killing the same way; inactive = no consistent shift, or siRNA harmful alone
This is one part, drawn at random, of about 23,000 reagents tested. Over the whole deposit, 455 (2%) got an active call. 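Active includes both protection and sensitisation; some change values fall well beyond the stated -50 to +50 range.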 Not all columns of the deposit are shown. Not stated in the record: the amount of reagent.

{"Target gene": "FBXW9 (F-box and WD repeat domain containing 9)", "two-siRNA summed score (-2 to +2)": 0, "call": "inactive"}
{"Target gene": "LOC402670", "two-siRNA summed score (-2 to +2)": 0, "call": "inactive"}
{"Target gene": "SLC35E1", "two-siRNA summed score (-2 to +2)": 0, "call": "inactive"}
{"Target gene": "GPAT2 (glycerol-3-phosphate acyltransferase 2, mitochondrial)", "two-siRNA summed score (-2 to +2)": 0, "call": "inactive"}
{"Target gene": "SOCS4 (suppressor of cytokine signaling 4)", "two-siRNA summed score (-2 to +2)": 0, "call": "inactive"}
{"Target gene": "PRR14L (proline rich 14 like)", "two-siRNA summed score (-2 to +2)": 1, "call": "inactive"}
{"Target gene": "CCL11 (C-C motif chemokine ligand 11)", "two-siRNA summed score (-2 to +2)": 0, "call": "inactive"}
{"Target gene": "LOC389163", "two-siRNA summed score (-2 to +2)": 0, "call": "inactive"}
{"Target gene": "UBAC1 (UBA domain containing 1)", "two-siRNA summed score (-2 to +2)": -2, "call": "active"}
{"Target gene": "MYL12B (myosin light chain 12B)", "two-siRNA summed score (-2 to +2)": 1, "call": "inactive"}
{"Target gene": "TMEM51 (transmembrane protein 51)", "two-siRNA summed score (-2 to +2)": 0, "call": "inactive"}
{"Target gene": "WNT11 (Wnt family member 11)", "two-siRNA summed score (-2 to +2)": 1, "call": "inactive"}
{"Target gene": "LINC00597 (long independently transcribed non-coding RNA 597)", "two-siRNA summed score (-2 to +2)": 0, "call": "inactive"}
{"Target gene": "LOC440952", "two-siRNA summed score (-2 to +2)": 0, "call": "inactive"}
{"Target gene": "CTAG2 (cancer/testis antigen 2)", "two-siRNA summed score (-2 to +2)": 1, "call": "inactive"}
{"Target gene": "DSCAML1 (DS cell adhesion molecule like 1)", "two-siRNA summed score (-2 to +2)": 0, "call": "inactive"}
{"Target gene": "NDUFA13 (NADH:ubiquinone oxidoreductase subunit A13)", "two-siRNA summed score (-2 to +2)": 0, "call": "inactive"}
{"Target gene": "SLC22A12", "two-siRNA summed score (-2 to +2)": -1, "call": "inactive"}
{"Target gene": "UCP1 (uncoupling protein 1)", "two-siRNA summed score (-2 to +2)": 0, "call": "inactive"}
{"Target gene": "GEN1 (GEN1 structure-specific endonuclease)", "two-siRNA summed score (-2 to +2)": 0, "call": "inactive"}
{"Target gene": "OAF (out at first homolog)", "two-siRNA summed score (-2 to +2)": 1, "call": "inactive"}
